Assay results taken from paper PMC5323190.
Results are given in words; binding and its absence hold for the method and conditions named. In cells and extracts the contact can be indirect. These calls come from enrichment with a bait or labelling near it, and not all partners need be listed.

The chains behind the UniProt entries cited, without tags or fusion partners. Residues count along the entry.
UniProt P21860, residues 20-1342: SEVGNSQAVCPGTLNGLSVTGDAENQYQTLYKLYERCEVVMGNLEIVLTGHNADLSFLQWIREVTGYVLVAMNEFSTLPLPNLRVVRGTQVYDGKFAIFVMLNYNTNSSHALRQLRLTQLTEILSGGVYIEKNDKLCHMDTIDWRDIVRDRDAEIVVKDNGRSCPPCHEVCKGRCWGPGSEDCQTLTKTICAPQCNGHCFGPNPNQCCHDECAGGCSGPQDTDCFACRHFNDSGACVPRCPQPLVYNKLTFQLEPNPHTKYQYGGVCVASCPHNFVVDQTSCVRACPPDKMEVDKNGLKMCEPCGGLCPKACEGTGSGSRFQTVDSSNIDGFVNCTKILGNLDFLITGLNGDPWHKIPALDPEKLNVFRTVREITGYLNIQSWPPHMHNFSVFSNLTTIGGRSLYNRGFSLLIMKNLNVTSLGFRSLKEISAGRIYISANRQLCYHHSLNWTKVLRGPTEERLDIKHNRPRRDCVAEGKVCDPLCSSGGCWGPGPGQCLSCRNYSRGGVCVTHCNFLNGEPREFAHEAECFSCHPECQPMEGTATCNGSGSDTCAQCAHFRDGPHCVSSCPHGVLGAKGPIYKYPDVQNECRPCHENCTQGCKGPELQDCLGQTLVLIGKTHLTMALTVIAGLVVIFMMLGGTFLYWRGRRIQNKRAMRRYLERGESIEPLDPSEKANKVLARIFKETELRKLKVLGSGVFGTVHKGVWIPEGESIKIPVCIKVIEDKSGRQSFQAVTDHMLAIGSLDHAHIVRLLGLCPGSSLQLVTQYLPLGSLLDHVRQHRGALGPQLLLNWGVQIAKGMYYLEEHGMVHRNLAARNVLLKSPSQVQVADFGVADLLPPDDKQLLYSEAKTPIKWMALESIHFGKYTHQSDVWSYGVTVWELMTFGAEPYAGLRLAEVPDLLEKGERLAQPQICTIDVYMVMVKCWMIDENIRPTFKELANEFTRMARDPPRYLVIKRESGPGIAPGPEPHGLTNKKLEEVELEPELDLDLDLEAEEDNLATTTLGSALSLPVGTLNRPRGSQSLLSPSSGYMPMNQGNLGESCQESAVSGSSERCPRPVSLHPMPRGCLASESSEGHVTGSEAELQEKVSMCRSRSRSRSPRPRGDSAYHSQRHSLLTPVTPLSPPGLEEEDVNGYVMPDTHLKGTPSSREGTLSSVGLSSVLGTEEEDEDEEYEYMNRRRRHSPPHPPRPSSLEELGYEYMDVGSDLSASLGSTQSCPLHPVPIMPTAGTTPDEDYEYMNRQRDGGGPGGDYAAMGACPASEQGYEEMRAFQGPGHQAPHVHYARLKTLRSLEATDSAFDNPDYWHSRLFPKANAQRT

Target: human HER3 (full length), stably overexpressed in CHO cells (CHO-HER3) (human) (UniProt P21860)
Test: affinity purification with mass spectrometry; HER3 immunoprecipitation-mass spectrometry (IP-MS) from lysates of CHO cells that stably overexpress human HER3

- binding: binds
B1: DJ-1 in CHO-HER3 cells (protein, UniProt G3IEU2 1-189)
chain: MASKRALVILAKGAEEMETVIPVDVMRRAGIKVTIAGLAGKDPVQCSRDVMICPDTSLEDAKKQGPYDVVVLPGGNLGAQNLSESAVVKEILKEQESRKGLIAAICAGPTALLAHEIGFGSKVTTHPGAKDKMINGGHYSYTESRVERDGLILTSQGPGTSFEFALAIVEALSGKEMADKVKAPLLLKD
